Laboratory results: PubChem BioAssay AID1259424 (University of Nebraska Medical Center, 2018)
The whole screen tested about 14,000 reagents; shown is a random part of them. 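Higher correlation or smaller distance means closer resemblance to KSR1 loss; control wells, including KSR1 knockdowns, recur on many plates.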 Not all columns of the deposit are shown. The record does not give: the time to read-out.

Screen: 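Seek colon cancer survival genes behaving like KSR1, using a six-gene signature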 (primary screen)
Cells: human HCT116 colon cancer cells
Reagents: siRNA pool against human genes, 50 nM
Measurement: 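Six signature mRNAs by branched-DNA multiplex assay, scaled to two housekeeping genes and non-targeting median, log2; matched to mean KSR1 knockdown profile by Pearson correlation and euclidean distance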
Direction: mean correlation with KSR1 profile and KSR1 correlation: higher = expression change more like KSR1 knockdown; mean distance from KSR1 profile: higher = expression change less like KSR1 knockdown

| gene symbol | mean correlation with KSR1 profile | mean distance from KSR1 profile | KSR1 correlation, replicate 1 |
| --- | --- | --- | --- |
| FKBP10 (FKBP prolyl isomerase 10) | 0.144 | 3.92 | -0.0046 |
| CLEC4D (C-type lectin domain family 4 member D) | 0.317 | 1.3 | 0.559 |
| JADE1 (jade family PHD finger 1) | 0.342 | 1.89 | 0.232 |
| MLC1 (modulator of VRAC current 1) | 0.591 | 1.53 | 0.773 |
| NPM2 (nucleophosmin/nucleoplasmin 2) | -0.361 | 2.25 | -0.321 |
| PPDPF | -0.197 | 2.68 | -0.311 |
| RAPGEFL1 (Rap guanine nucleotide exchange factor like 1) | 0.539 | 0.964 | 0.565 |
| IFI27 (interferon alpha inducible protein 27) | 0.00337 | 1.92 | -0.157 |
| MAL (mal, T cell differentiation protein (MAL blood group)) | 0.0318 | 2.33 | 0.0862 |
| KCTD16 (potassium channel tetramerization domain containing 16) | -0.622 | 2.69 | -0.461 |
| GPATCH2 (G-patch domain containing 2) | 0.548 | 3.32 | 0.251 |
| ABRACL (ABRA C-terminal like) | 0.447 | 1.84 | 0.277 |
| CAMK1D (calcium/calmodulin dependent protein kinase ID) | -0.165 | 3.82 | -0.0816 |
| H1-2 (H1.2 linker histone, cluster member) | 0.598 | 2.62 | 0.586 |
| ANGPTL7 (angiopoietin like 7) | -0.592 | 2.84 | -0.633 |
| LMOD3 (leiomodin 3) | -0.37 | 2.81 | -0.349 |
| ADPRM (ADP-ribose/CDP-alcohol diphosphatase, manganese dependent) | -0.892 | 1.85 | -0.934 |
| DDR1 (discoidin domain receptor tyrosine kinase 1) | -0.199 | 3.38 | 0.171 |
| SLC52A1 | 0.624 | 2.57 | 0.607 |
| TNNC1 (troponin C1, slow skeletal and cardiac type) | 0.0931 | 2.74 | 0.186 |
| PCDH11X (protocadherin 11 X-linked) | 0.425 | 1.69 | 0.217 |
| AKR1E2 (aldo-keto reductase family 1 member E2) | -0.241 | 1.71 | -0.336 |
| MYH6 (myosin heavy chain 6) | -0.0794 | 2.62 | 0.088 |
| PCDHGC4 (protocadherin gamma subfamily C, 4) | -0.0992 | 1.96 | -0.236 |

Reprinted from the entries so far (4 entries):
| gene symbol | mean correlation with KSR1 profile | mean distance from KSR1 profile | KSR1 correlation, replicate 1 |
| --- | --- | --- | --- |
| CLEC4D (C-type lectin domain family 4 member D) | 0.317 | 1.3 | 0.559 |
| JADE1 (jade family PHD finger 1) | 0.342 | 1.89 | 0.232 |
| MLC1 (modulator of VRAC current 1) | 0.591 | 1.53 | 0.773 |
| NPM2 (nucleophosmin/nucleoplasmin 2) | -0.361 | 2.25 | -0.321 |

Continued.
| gene symbol | mean correlation with KSR1 profile | mean distance from KSR1 profile | KSR1 correlation, replicate 1 |
| --- | --- | --- | --- |
| AIG1 (androgen induced 1) | -0.614 | 2.02 | -0.209 |
| LILRA6 (leukocyte immunoglobulin like receptor A6) | -0.366 | 2.11 | -0.383 |
| GNPDA1 (glucosamine-6-phosphate deaminase 1) | 0.00138 | 4.25 | 0.181 |
| AVIL (advillin) | 0.241 | 1.33 | 0.396 |
| POLR1B (RNA polymerase I subunit B) | -0.268 | 3.03 | -0.427 |
| RBM17 (RNA binding motif protein 17) | -0.11 | 2.92 | -0.0724 |
| TSPYL5 (TSPY like 5) | 0.72 | 0.984 | 0.757 |
| MTRES1 (mitochondrial transcription rescue factor 1) | -0.404 | 2.62 | -0.503 |
| CNN2 (calponin 2) | 0.127 | 2.64 | 0.164 |
| COLEC10 (collectin subfamily member 10) | -0.229 | 2.25 | -0.0856 |
| F2RL2 (coagulation factor II thrombin receptor like 2) | 0.461 | 1.99 | 0.37 |
| EEA1 (early endosome antigen 1) | -0.542 | 1.85 | -0.395 |
| PAIP2 (poly(A) binding protein interacting protein 2) | 0.942 | 1.75 | 0.886 |
| PDCD10 (programmed cell death 10) | -0.2 | 2.51 | -0.355 |
| TMC1 (transmembrane channel like 1) | 0.0624 | 1.84 | -0.0337 |
| MANBA (mannosidase beta) | 0.407 | 2.96 | 0.327 |
| ANKMY1 (ankyrin repeat and MYND domain containing 1) | 0.0157 | 1.45 | 0.0265 |
| SLC6A16 | -0.967 | 3.95 | -0.76 |
| ABLIM3 (actin binding LIM protein family member 3) | 0.757 | 0.529 | 0.497 |
| F13A1 (coagulation factor XIII A chain) | -0.116 | 2.09 | -0.156 |
| NECAB1 (N-terminal EF-hand calcium binding protein 1) | -0.275 | 1.17 | 0.0207 |
| AP3S1 (adaptor related protein complex 3 subunit sigma 1) | -0.288 | 2.64 | -0.344 |
| CSH2 (chorionic somatomammotropin hormone 2) | 0.419 | 2.94 | 0.46 |
| FAM230C (family with sequence similarity 230 member C) | -0.162 | 2.48 | -0.0499 |
| HDHD5 (haloacid dehalogenase like hydrolase domain containing 5) | 0.426 | 2.25 | 0.275 |
| ALMS1 (ALMS1 centrosome and basal body associated protein) | -0.676 | 2.97 | -0.815 |
| C1orf54 (chromosome 1 open reading frame 54) | 0.141 | 2.26 | 0.42 |
| CCT6A (chaperonin containing TCP1 subunit 6A) | -0.0454 | 1.85 | 0.0888 |
| CABS1 (calcium binding protein, spermatid associated 1) | 0.183 | 2.51 | 0.17 |
| RNF220 (ring finger protein 220) | 0.168 | 2.07 | -0.0418 |
| NPRL2 (NPR2 like, GATOR1 complex subunit) | -0.311 | 2.18 | -0.382 |
| HDAC1 (histone deacetylase 1) | -0.328 | 2.67 | -0.275 |
| LRPAP1 (LDL receptor related protein associated protein 1) | 0.466 | 0.997 | 0.554 |
| RTF2 (replication termination factor 2) | -0.502 | 1.88 | -0.397 |
| WDR46 (WD repeat domain 46) | 0.0218 | 3.66 | 0.0282 |
| PSMB1 (proteasome 20S subunit beta 1) | -0.301 | 4.17 | -0.129 |
| AGRN (agrin) | -0.2 | 4.48 | -0.0925 |
| THRB (thyroid hormone receptor beta) | 0.149 | 2.05 | -0.121 |
| ACTL8 (actin like 8) | 0.428 | 2.4 | 0.331 |
